Laboratory results published in patent CN115521378A.
No constants are given. Whether binding was seen depends on the method and setting. Some binding calls cover weakened binding; strength is not graded here.

Chains of the proteins cited; added tags and fusions are not shown.
UniProt Q9NZQ7: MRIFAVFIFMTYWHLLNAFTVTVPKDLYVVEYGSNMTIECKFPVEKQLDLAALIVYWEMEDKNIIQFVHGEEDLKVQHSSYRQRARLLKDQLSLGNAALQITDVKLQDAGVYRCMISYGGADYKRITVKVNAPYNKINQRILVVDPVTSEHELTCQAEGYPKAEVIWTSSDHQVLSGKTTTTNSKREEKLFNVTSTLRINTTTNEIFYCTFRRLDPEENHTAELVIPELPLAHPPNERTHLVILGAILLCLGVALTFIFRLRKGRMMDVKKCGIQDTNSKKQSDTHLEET

B1: AH00233 (antibody, V domains shown)
VH: QVQLVQSGAEVKKPGSSVKVSCKASGYTFTSNWMHWDRQAPGQGLDWMGMIHPNSAIKYNEKFKSRVTITADKSTSTAYMELSSLRSEDTAVYYCARSYYGSSPYFFDYWGQGTMVTVSS
VL: DIQMTQSPSSLSASVGDRVTISCRASQDISKYLNWYQQKPGKAVKFLIYYTSRLHSGVPSRFSGSGSGTDYTLTISSLQPEDFATYFCQQGDTLPWTFGGGTKVEIK
B2: AH00231 (antibody, V domains shown)
VH: QVQLVQSGAEVKKPGSSVKVSCKASGYTFTSNWMHWMRQAPGQGLEWMGMIHPNSAIKYNEKFKSRVTITADKSTSTAYMELSSLRSEDTAVYYCARSYYGSSPYFFDYWGQGTMVTVSS
VL: DIQMTQSPSSLSASVGDRVTITCRASQDISKYLNWYQQKPGKAVKFLIYYTSRLHSGVPARFSGSGSGTDYTLTISSLQPEDFATYFCQQGDTLPWTFGGGTKVEIK
B3: AH00229 (antibody, V domains shown)
VH: QVQLVQSGAEVKKPGSSVKVSCKASGYTFTSNWMHWVRQAPGQGLDWMGMIHPNSAIKYNEKFKSRATITADKSTSTAYMELSSLRSEDTAVYYCARSYYGSSPYFFDYWGQGTMVTVSS
VL: DIQMTQSPSSLSASVGDRVTISCRASQDISKYLNWYQQKPGKAVKFLIYYTSRLHSGVPSRFSGSGSGTDYTLTISSLQPEDFATYFCQQGDTLPWTFGGGTKVEIK
B4: CBM (antibody, V domains shown)
VH: QVQLVQSGAEVKKPGSSVKVSCKASGYTFTSNWMHWMKQAPGQGLEWIGMIHPNSAIKYNEKFKSRATLTADKSTSTAYMELSSLRSEDTAVYYCARSYYGSSPYFFDYWGQGTMVTVSS
VL: DIQMTQSPSSLSASVGDRVTITCRASQDISKYLNWYQQKPGKAPKFLIYYTSRLHSGVPSRFSGSGSGTDYTLTISSLQPEDVATYFCQQGDTLPWTFGGGTKVEIK
B5: hu13H6D3 (antibody, V domains shown)
VH: QVQLVQSGAEVKKPGSSVKVSCKASGYTFTSNWMHWVRQAPGQGLEWMGMIHPNSAIKYNEKFKSRVTITADKSTSTAYMELSSLRSEDTAVYYCARSYYGSSPYFFDYWGQGTMVTVSS
VL: DIQMTQSPSSLSASVGDRVTITCRASQDISKYLNWYQQKPGKAPKLLIYYTSRLHSGVPSRFSGSGSGTDFTLTISSLQPEDFATYYCQQGDTLPWTFGGGTKVEIK
B6: AH00232 (antibody, V domains shown)
VH: QVQLVQSGAEVKKPGSSVKVSCKASGYTFTSNWMHWMRQAPGQGLDWIGMIHPNSAIKYNEKFKSRVTLTADKSTSTAYMELSSLRSEDTAVYYCARSYYGSSPYFFDYWGQGTMVTVSS
VL: DIQMTQSPSSLSASVGDRVTITCRASQDISKYLNWYQQKPGKAVKFLIYYTSRLHSGVPARFSGSGSGTDYTLTISSLQPEDFATYYCQQGDTLPWTFGGGTKVEIK
B7: AH00228 (antibody, V domains shown)
VH: QVQLVQSGAEVKKPGSSVKVSCKASGYTFTSNWMHWMRQAPGQGLEWMGMIHPNSAIKYNEKFKSRVTLTADKSTSTAYMELSSLRSEDTAVYYCARSYYGSSPYFFDYWGQGTMVTVSS
VL: DIQMTQSPSSLSASVGDRVTISCRASQDISKYLNWYQQKPGKAVKFLIYYTSRLHSGVPARFSGSGSGTDYTLTISSLQPEDFATYFCQQGDTLPWTFGGGTKVEIK
B8: 5BM (antibody, V domains shown)
VH: QVQLVQSGAEVKKPGSSVKVSCKASGYTFTSNWMHWMRQAPGQGLDWIGMIHPNSAIKYNEKFKSRATLTADKSTSTAYMELSSLRSEDTAVYYCARSYYGSSPYFFDYWGQGTMVTVSS
VL: DIQMTQSPSSLSASVGDRVTISCRASQDISKYLNWYQQKPGKAVKFLIYYTSRLHSGVPARFSGSGSGTDYTLTISSLQPEDFATYFCQQGDTLPWTFGGGTKVEIK
B9: AH00230 (antibody, V domains shown)
VH: QVQLVQSGAEVKKPGSSVKVSCKASGYTFTSNWMHWMRQAPGQGLDWMGMIHPNSAIKYNEKFKSRVTITADKSTSTAYMELSSLRSEDTAVYYCARSYYGSSPYFFDYWGQGTMVTVSS
VL: DIQMTQSPSSLSASVGDRVTISCRASQDISKYLNWYQQKPGKAVKFLIYYTSRLHSGVPARFSGSGSGTDYTLTISSLQPEDFATYFCQQGDTLPWTFGGGTKVEIK

Molecular target: PD-L1蛋白 (human) (UniProt Q9NZQ7)
Assay: SPR (Biacore T200), antibody captured by anti-human Fc on CM5, PD-L1 as analyte

binding, binds:
B1
B2
B3
B4
B5
B6
B7
B8
B9
